Reference: PubChem BioAssay AID652054 (National Center for Advancing Translational Sciences (NCATS), 2013)
Screen size: about 360,000 compounds; about 9,100 (2.5%) were called active. Inconclusive means that the source gave no clear call. Such entries were picked first, then a sample of the others. No stated cut-off is given here; in the data, active means max response below about -50%; inconclusive means no clear call, values can overlap the other calls; inactive means above that.

Chains of the proteins cited; added tags and fusions are not shown.
UniProt P35462, whole entry, looked up: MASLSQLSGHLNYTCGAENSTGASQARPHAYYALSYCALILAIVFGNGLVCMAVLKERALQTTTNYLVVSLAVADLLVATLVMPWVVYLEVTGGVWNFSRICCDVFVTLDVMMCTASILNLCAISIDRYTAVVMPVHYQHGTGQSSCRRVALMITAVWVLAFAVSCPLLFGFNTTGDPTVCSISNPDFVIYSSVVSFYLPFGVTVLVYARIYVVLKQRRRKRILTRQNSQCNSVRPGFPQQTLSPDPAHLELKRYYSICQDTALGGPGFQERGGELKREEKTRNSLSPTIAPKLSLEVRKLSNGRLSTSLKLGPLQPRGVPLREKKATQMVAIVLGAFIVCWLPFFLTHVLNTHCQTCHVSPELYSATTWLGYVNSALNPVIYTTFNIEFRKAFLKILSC

Target: D(3) dopamine receptor (Homo sapiens) (UniProt P35462)
Assay: qHTS of D3 Dopamine Receptor Antagonist: qHTS
Details: D3R cells, DiscoveRx beta-arrestin luminescence, antagonist mode; stronger effect = lower value
Procedure, shortened: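 Cells expressing the human receptor were seeded at 1500 cells/well, incubated overnight at 37 degrees C in 5% CO2, then exposed to library compounds with dopamine controls for 90 minutes at 37 degrees C before luminescent detection.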
On the % scale 0 is the no-effect control and ±100 the full control effect.

| SMILES | max response, negative = inhibition |
| --- | --- |
| CC(C)c1ccc(NC(=O)C2(C)Cc3c(-c4ccccc4)ccnc3O2)cc1 (stereo not given) | inconclusive: -45.2% |
| O=C(Nc1sc2c(c1C(=O)O)CCC2)c1ccccc1 | active: -52.1% |
| COc1ccc(-c2oc(=O)c3cc(OC)c(OC)cc3c2/C=C/c2cccc([N+](=O)[O-])c2)cc1 | inconclusive: -37.1% |
| COc1cc2c3c(c1)/C(=C1/SC(NC(C)=O)=NC1=O)C(=O)N3C(C)(C)C=C2C | inconclusive: -33.5% |
| c1ccc(N2CCN(C3CCSC3)CC2)cc1 (stereo not given) | inconclusive: -38.4% |
| COc1ccc(NC(=O)c2c(Cl)n(C)c3ccccc23)cc1 | inconclusive: -36.1% |
| Brc1ccc(OCc2nnc(SCC3CCCCC3)o2)cc1 | inconclusive: -41.9% |
| COc1ccc(CN2CCSCC2)cc1C | inconclusive: -32.5% |
| COc1cccc(CNC(=O)[C@@H]2CCCN2C(=O)[C@@H]2CCCN2C(=O)OC(C)(C)C)c1 | inactive: 2.85% |
| COC(=O)Sc1nc(N2CCOCC2)c2c(c1C#N)CC(C)(C)OC2 | active: -56.5% |
| S=C(NCc1ccncc1)Nc1cccc(Cl)c1 | inconclusive: -33% |
| O=C(CN1CCCCC1)Nc1cccc(Oc2ccccc2)c1 | inconclusive: -35.3% |
| C=CCc1c(C)nc(C)nc1N/N=C/c1ccc([N+](=O)[O-])cc1 | inconclusive: -40.3% |
| Cc1ccc2[nH]c(C(=O)NCCN3CCCC3)cc2c1 | inconclusive: -39.9% |
| CCOc1ccccc1NC(=O)NCCN1CCCCC1 | inconclusive: -44.6% |
| CCOC(=O)C(C)(C)Oc1cccc2c1S(=O)(=O)c1ccccc1-2 | inconclusive: -31.6% |
| O=C1/C(=C/c2cccnc2)Oc2cc(OS(=O)(=O)c3ccc(F)cc3)ccc21 | inactive: 14.2% |
| O=C1C(Cl)=C(N2CCN(c3ccccc3[N+](=O)[O-])CC2)C(=O)c2ccccc21 | active: -60.3% |
| COc1ccc(/C=C/C(=O)NCc2cn(C)nc2C)cc1COc1ccc(Cl)cc1Br | inactive: -10.2% |
| CCn1cc(CN2CCCC(C(=O)c3ccc(-c4ccccc4)c(F)c3)C2)cn1 (stereo not given) | inactive: -12.5% |
| COC(=O)c1cc(=O)n(Cc2cccs2)c(=Nc2ccc(F)cc2)s1 | inconclusive: -36.7% |
| O=C1CN(CC(=O)Nc2cccc(Cl)c2Cl)c2ccccc2N1 | inactive: -17.3% |
| COc1cccc(C(c2nnnn2C(C)(C)C)N2CCN(C/C=C/c3ccccc3)CC2)c1OC (stereo not given) | active: -102% |
| CC(C(=O)Nc1ccccc1Sc1ccccc1)N(c1ccccc1)S(C)(=O)=O (stereo not given) | inconclusive: -30.6% |
| Cc1ccc(S(=O)(=O)N(C)c2ccc(C(=O)NCC(c3ccco3)N(C)C)cc2)cc1 (stereo not given) | inactive: -26.8% |

2 of the compounds above, bar-delimited:
SMILES | max response, negative = inhibition
COc1cccc(C(c2nnnn2C(C)(C)C)N2CCN(C/C=C/c3ccccc3)CC2)c1OC (stereo not given) | active: -102%
CC(C(=O)Nc1ccccc1Sc1ccccc1)N(c1ccccc1)S(C)(=O)=O (stereo not given) | inconclusive: -30.6%
